Measurements reported in PubChem BioAssay AID1259424 (University of Nebraska Medical Center, 2018)
Shown is an unselected part of about 14,000 reagents tested. 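Higher correlation or smaller distance means closer resemblance to KSR1 loss; control wells, including KSR1 knockdowns, recur on many plates.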 Further read-outs or replicates are left out here. Not given: the time to read-out.

Test: 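Seek colon cancer survival genes behaving like KSR1, using a six-gene signature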 (primary screen)
Cells: human HCT116 colon cancer cells
Reagent: siRNA pool against human genes, 50 nM
Measured: 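Log2 levels of six mRNAs (branched-DNA multiplex), adjusted by two reference genes and the non-targeting median, then scored against the average KSR1 knockdown pattern as Pearson r and euclidean distance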
Reading the numbers: mean correlation with KSR1 profile: higher = expression change more like KSR1 knockdown

target gene | PubChem SID | mean correlation with KSR1 profile
RSPH14 (GeneID 27156) | SID363998849 | -0.334
CRISPLD2 (GeneID 83716) | SID364003656 | 0.346
KBTBD8 (GeneID 84541) | SID364004018 | -0.196
COASY (GeneID 80347) | SID364003333 | 0.704
ZNF536 (GeneID 9745) | SID364005541 | -0.226
NAA60 (GeneID 79903) | SID364003108 | -0.409
ADAM19 (GeneID 8728) | SID364002626 | 0.492
JPH1 (GeneID 56704) | SID364001750 | 0.179
ZNF230 (GeneID 7773) | SID363997122 | -0.31
PPIA (GeneID 5478) | SID364002027 | -0.326
VPS39 (GeneID 23339) | SID363999400 | 0.0771
TNP1 (GeneID 7141) | SID363994403 | -0.508
DAAM2 (GeneID 23500) | SID363999431 | -0.376
SEPTIN1 (GeneID 1731) | SID364004397 | 0.855
RMI1 (GeneID 80010) | SID364003177 | 0.59
TLR7 (GeneID 51284) | SID364000196 | 0.108
SLC8A1 (GeneID 6546) | SID364002006 | -0.262
UBE2C (GeneID 11065) | SID363997751 | 0.129
HR (GeneID 55806) | SID363996075 | 0.182
SLC2A5 (GeneID 6518) | SID363994188 | -0.282

As entered above:
Result for UBE2C (GeneID 11065) [SID363997751] in “mean correlation with KSR1 profile”: 0.129
For “mean correlation with KSR1 profile”, CRISPLD2 (GeneID 83716) [SID364003656] has 0.346
Entry for SLC2A5 (GeneID 6518) [SID363994188] in “mean correlation with KSR1 profile”: -0.282
